Data as given in the supplement of paper PMC3682954.
“And” between values parts separate entries of the source, which are not always exact repeats. Equal values may be shown once. Where a name gives a salt, the structure may show the parent alone. ± gives the standard deviation of the averaged measurements. This is one part of the list. Single values are uncertain, as repeats are few or missing.

Test system: RAW 264.7
Test: cell viability (MTT) relative to vehicle control; higher = more viable cells
Conditions: stimulus: HMGB1 5 ug/ml, 18 h
[1] = compound concentration: 1 ug/ml

Structure (SMILES)	cell viability (compound concentration: 3 uM)	cell viability [1] [%]
CN(C)CCCN1c2ccccc2Sc2ccccc21	94.8%	
CN(C)CCCN1c2ccccc2Sc2ccccc21 [Promazine hydrochloride]	115 ± 9.6%	
CC(N)=NCCCC[C@H](N)C(=O)O [L-N6-(1-Iminoethyl)lysine hydrochloride]	98.8%	
CC(C)(C(=O)O)c1ccc(C(O)CCCN2CCC(C(O)(c3ccccc3)c3ccccc3)CC2)cc1 (configuration not stated) [Fexofenadine hydrochloride]	101%	
CC(C)(C(=O)O)c1ccc(C(O)CCCN2CCC(C(O)(c3ccccc3)c3ccccc3)CC2)cc1 (configuration not stated) [Fexofenadine HCl]	99.8%	
CC(C)(C(=O)O)c1ccc(C(O)CCCN2CCC(C(O)(c3ccccc3)c3ccccc3)CC2)cc1 (configuration not stated)	105%	
COc1ccc([C@@H]2CC(=O)c3c(O)cc(O[C@@H]4O[C@H](CO[C@@H]5O[C@@H](C)[C@H](O)[C@@H](O)[C@H]5O)[C@@H](O)[C@H](O)[C@H]4O)cc3O2)cc1O [Hesperidin, 80%]		103
COc1ccc([C@@H]2CC(=O)c3c(O)cc(O[C@@H]4O[C@H](CO[C@@H]5O[C@@H](C)[C@H](O)[C@@H](O)[C@H]5O)[C@@H](O)[C@H](O)[C@H]4O)cc3O2)cc1O [Hesperidin]	118%	
COC(=O)C1=C(C)NC(C)=C(C(=O)OCCN2CCN(C(c3ccccc3)c3ccccc3)CC2)C1c1cccc([N+](=O)[O-])c1 (configuration not stated) [Manidipine]	128%	
COC(c1ccccc1)(c1ccccc1)[C@H](Oc1nc(C)cc(C)n1)C(=O)O [Ambrisentan]	92.4%	
C[N+]1(C)[C@@H]2CC[C@H]1C[C@@H](OC(=O)C(O)c1ccccc1)C2 (some centres not stated)	103%	
Cc1c(C)c2c(c(C)c1O)CCC(C)(COc1ccc(CC3SC(=O)NC3=O)cc1)O2 (configuration not stated) [Troglitazone]	115 ± 3.5%	
Cc1ccc(O)c(N=Nc2ccccc2)n1	115%	
CC(C(=O)O)c1ccc2c(c1)Cc1cccnc1O2 (configuration not stated) [Pranoprofen]	114 ± 5.6%	
C[C@H]1COc2c(C3(N)CC3)c(F)cc3c(=O)c(C(=O)O)cn1c23	89.1%	
C[C@H]1COc2c(C3(N)CC3)c(F)cc3c(=O)c(C(=O)O)cn1c23 [Pazufloxacin]	114%	
CC(C)(C)C(=O)Oc1ccc(S(=O)(=O)Nc2ccccc2C(=O)NCC(=O)O)cc1 [Sivelestat sodium salt hydrate]	114%	
CSc1ccc2c(c1)C(N1CCN(C)CC1)Cc1ccccc1S2 (configuration not stated) [Methiothepin]	106%	
CSc1ccc2c(c1)C(N1CCN(C)CC1)Cc1ccccc1S2 (configuration not stated) [Methiothepin maleate]	89.4%	
CSc1ccc2c(c1)C(N1CCN(C)CC1)Cc1ccccc1S2 (configuration not stated) [Methiothepin mesylate]	108%	
CSc1ccc2c(c1)C(N1CCN(C)CC1)Cc1ccccc1S2 (configuration not stated)	106%	
C[N+]1(C)[C@@H]2C[C@@H](OC(=O)C(O)(c3cccs3)c3cccs3)C[C@H]1[C@@H]1O[C@@H]12 [Tiotropium Bromide]	102%	
CC(=O)Nc1ccccc1	105%	
COC(=O)[C@H]1[C@H]2C[C@H]3c4[nH]c5ccccc5c4CCN3C[C@@H]2CC[C@@H]1O [Corynanthine]		90.2
COC(=O)[C@H]1[C@H]2C[C@H]3c4[nH]c5ccccc5c4CCN3C[C@@H]2CC[C@@H]1O [Corynanthine hydrochloride]		85.5
COc1ccc2c(c1OC)C(=O)OC2C1c2c(cc3c(c2OC)OCO3)CCN1C [(S,R)-Noscapine]		96.7

4 entries from above in another layout:

| Structure (SMILES) | cell viability (compound concentration: 3 uM) | cell viability [1] [%] |
| --- | --- | --- |
| CC(C)(C(=O)O)c1ccc(C(O)CCCN2CCC(C(O)(c3ccccc3)c3ccccc3)CC2)cc1 (configuration not stated) [Fexofenadine HCl] | 99.8% |  |
| CC(C)(C(=O)O)c1ccc(C(O)CCCN2CCC(C(O)(c3ccccc3)c3ccccc3)CC2)cc1 (configuration not stated) | 105% |  |
| COc1ccc([C@@H]2CC(=O)c3c(O)cc(O[C@@H]4O[C@H](CO[C@@H]5O[C@@H](C)[C@H](O)[C@@H](O)[C@H]5O)[C@@H](O)[C@H](O)[C@H]4O)cc3O2)cc1O [Hesperidin, 80%] |  | 103 |
| COc1ccc([C@@H]2CC(=O)c3c(O)cc(O[C@@H]4O[C@H](CO[C@@H]5O[C@@H](C)[C@H](O)[C@@H](O)[C@H]5O)[C@@H](O)[C@H](O)[C@H]4O)cc3O2)cc1O [Hesperidin] | 118% |  |

(further entries)

Structure (SMILES)	cell viability (compound concentration: 3 uM)	cell viability [1] [%]
N=C(N)NS(=O)(=O)c1ccc(N)cc1	112 ± 2.5%	
N=C(N)NS(=O)(=O)c1ccc(N)cc1 [Sulfaguanidine]	87.8%	
O=c1[nH]c(=O)n([C@@H]2O[C@H](CO)[C@@H](O)[C@H]2O)cc1Br [5-Bromouridine]		93.1
CC1=C(/C=C/C(C)=C/C=C/C(C)=C/C=C/C=C(C)/C=C/C=C(C)/C=C/C2=C(C)C(=O)[C@@H](O)CC2(C)C)C(C)(C)C[C@H](O)C1=O [Astaxanthin]	108%	
O=C(O)[C@H]1NCCC[C@H]1C(=O)O (racemic) [(±)-cis-Piperidine-2,3-dicarboxylic acid]	96.8%	
CC(=O)Oc1ccccc1C(=O)O [Acetylsalicylic acid]	108 ± 16%	
CC(=O)Oc1ccccc1C(=O)O [Acetylsalicylic Acid]	106%	
CC(=O)Oc1ccccc1C(=O)O	107%	
NC(=O)C1=CN(C2OC(COP(=O)(O)OP(=O)(O)OC[C@H]3O[C@@H](n4cnc5c(N)ncnc54)C(OP(=O)(O)O)[C@H]3O)C(O)C2O)C=CC1 (some centres not stated) [NADPH tetrasodium]	113%	
CC(C)=CC[C@@H](O)C1=CC(=O)c2c(O)ccc(O)c2C1=O [Shikonin]	14.5%	
CC(O)C(O)[C@H]1CNc2nc(N)[nH]c(=O)c2N1 (stereo partly drawn) [(6R)-5,6,7,8-Tetrahydro-L-biopterin hydrochloride]	108%	
NC(=O)c1cc[n+](CC2=C(C(=O)[O-])N3C(=O)[C@@H](NC(=O)[C@@H](c4ccccc4)S(=O)(=O)O)[C@H]3SC2)cc1 [Cefsulodin sodium salt]	93.2%	
CC1=C(/C=C/C(C)=C/C=C/C(C)=C/C(=O)O)C(C)(C)CCC1	109 ± 1.6%	
CC1=C(/C=C/C(C)=C/C=C/C(C)=C/C(=O)O)C(C)(C)CCC1 [Retinoic Acid]	122%	
CC1=C(/C=C/C(C)=C/C=C/C(C)=C/C(=O)O)C(C)(C)CCC1 [Retinoic acid]	118 ± 9.3%	
NC[C@@H]1CC[C@@H](N)[C@@H](O[C@H]2[C@H](O)[C@@H](O[C@H]3O[C@H](CO)[C@@H](O)[C@H](N)[C@H]3O)[C@H](N)C[C@@H]2N)O1	111%	
CCC1(c2ccccc2)NC(=O)N(C)C1=O (configuration not stated) [Mephenytoin]	103 ± 8.1%	
N[C@@H](CCC(=O)N[C@@H](CS)C(=O)NCC(=O)O)C(=O)O	109%	
CC1=C(C(=O)O)N2C(=O)[C@@H](NC(=O)[C@H](N)C3=CCC=CC3)[C@H]2SC1 [Cephradine]	105%	
CC1=C(C(=O)O)N2C(=O)[C@@H](NC(=O)[C@H](N)C3=CCC=CC3)[C@H]2SC1	108%	
COc1cc(C(=O)NCCCCCC(=O)O)cc(OC)c1OC	108%	
CC(=O)OCC1OC(Oc2cc(OC(C)=O)c3c(=O)cc(-c4ccc(OC(C)=O)c(OC(C)=O)c4)oc3c2)C(OC(C)=O)C(OC(C)=O)C1OC(C)=O (configuration not stated)		99.1
NC(=O)CNCCC(c1ccccc1)c1ccccc1 [N-(3,3-Diphenylpropyl)glycinamide]	105%	
CCc1c(C)[nH]c2c1C(=O)C(CN1CCOCC1)CC2 (configuration not stated) [Molindone hydrochloride]	93 ± 6.7%	
Nc1ccc(N2C(=O)c3ccccc3C2=O)c(Cl)c1 [N-(4-Amino-2-chlorophenyl)phthalimide]	101%	
CN1CCc2cc(Cl)c(O)cc2[C@@H](c2ccccc2)C1	95.1 ± 1.3%	

Structure (SMILES)	cell viability (compound concentration: 3 uM)	cell viability [1] [%]
Cc1ncc(CO)c(CO)c1O	108%	
Cc1ncc(CO)c(CO)c1O [Pyridoxine hydrochloride]	116%	
COc1cc2c3cc1Oc1cc(ccc1O)C[C@@H]1c4c(cc(OC)c(O)c4Oc4ccc(cc4)C[C@@H]3N(C)CC2)CC[N+]1(C)C	104%	
CC1(C)[C@H](C(=O)O)N2C(=O)C[C@H]2S1(=O)=O [Sulbactam]	97.2 ± 3.3%	
Clc1ccc(CO/N=C(\Cn2ccnc2)c2ccc(Cl)cc2Cl)c(Cl)c1 [Oxiconazole]	103%	
Clc1ccc(CO/N=C(\Cn2ccnc2)c2ccc(Cl)cc2Cl)c(Cl)c1	110 ± 1.4%	
Clc1ccc(CO/N=C(\Cn2ccnc2)c2ccc(Cl)cc2Cl)c(Cl)c1 [Oxiconazole Nitrate]	119%	
O=C(O)C1CCCN(CCC=C(c2ccccc2)c2ccccc2)C1 (configuration not stated)	112%	
CC(=O)O[C@]1(C(C)=O)CC[C@H]2[C@@H]3C=C(Cl)C4=CC(=O)[C@@H]5C[C@@H]5[C@]4(C)[C@H]3CC[C@@]21C [Cyproterone acetate]	99.3 ± 1.6%	105
CC(=O)O[C@]1(C(C)=O)CC[C@H]2[C@@H]3C=C(Cl)C4=CC(=O)[C@@H]5C[C@@H]5[C@]4(C)[C@H]3CC[C@@]21C [Cyproterone Acetate]	100%	
CC(=O)O[C@]1(C(C)=O)CC[C@H]2[C@@H]3C=C(Cl)C4=CC(=O)[C@@H]5C[C@@H]5[C@]4(C)[C@H]3CC[C@@]21C	101%	
COc1ccc2cc([C@H](C)CO)ccc2c1	99.7%	
C#C[C@]1(OC(C)=O)CC[C@H]2[C@@H]3CCC4=CC(=NO)CC[C@@H]4[C@H]3CC[C@@]21CC (mixture of isomers)	106%	
C#C[C@]1(OC(C)=O)CC[C@H]2[C@@H]3CCC4=CC(=NO)CC[C@@H]4[C@H]3CC[C@@]21CC (mixture of isomers) [Norgestimate]	80.1%	
N[C@@H]1CONC1=O	99.9% and 97%	
N[C@@H]1CONC1=O [D-cycloserine]	98.7%	
N[C@@H]1CONC1=O [D-Cycloserine]	108%	
O=C(O)COCCN1CCN(C(c2ccccc2)c2ccc(Cl)cc2)CC1 (configuration not stated) [Cetirizine dihydrochloride]	100 ± 11%	
O=C(O)COCCN1CCN(C(c2ccccc2)c2ccc(Cl)cc2)CC1 (configuration not stated)	108%	
CCCCC(CC)CCC(CC(C)C)OS(=O)(=O)O (configuration not stated)	116%	
CC(Cc1ccccc1)(NC(=O)CN)c1ccccc1 (racemic)	101%	
CCCCCCCCCCCCCCCC(=O)OC[C@@H](NC(=O)C(Cl)Cl)[C@H](O)c1ccc([N+](=O)[O-])cc1	110%	
N[C@@H](Cc1c[nH]c2ccc(O)cc12)C(=O)O [5-Hydroxy-L-tryptophan]	105%	
N[C@@H](Cc1c[nH]c2ccc(O)cc12)C(=O)O [Oxitriptan; L-5-Hydroxytryptophan;]		103
